Measured values reported in patent US20040214255A1.
No constants are given. Whether binding was seen depends on the method and setting. Some binding calls cover weakened binding; strength is not graded here. For part of these data: Where a sequence is shown, tags or fusion partners need not be part of it. Each block holds one substance with its values, some of them ahead of it.

Chains of the proteins cited; added tags and fusions are not shown. Residues count along the entry.
UniProt P31751, residues 276-408: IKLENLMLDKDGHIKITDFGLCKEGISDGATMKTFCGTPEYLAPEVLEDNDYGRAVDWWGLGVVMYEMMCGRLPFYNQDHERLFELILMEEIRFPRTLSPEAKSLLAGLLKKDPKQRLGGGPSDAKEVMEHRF
UniProt Q99471, residues 14-154: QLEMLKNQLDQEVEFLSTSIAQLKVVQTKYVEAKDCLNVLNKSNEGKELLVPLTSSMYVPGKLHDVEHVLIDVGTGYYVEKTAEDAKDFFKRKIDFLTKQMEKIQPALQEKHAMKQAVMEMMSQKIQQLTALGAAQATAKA
UniProt P63010, residues 214-594: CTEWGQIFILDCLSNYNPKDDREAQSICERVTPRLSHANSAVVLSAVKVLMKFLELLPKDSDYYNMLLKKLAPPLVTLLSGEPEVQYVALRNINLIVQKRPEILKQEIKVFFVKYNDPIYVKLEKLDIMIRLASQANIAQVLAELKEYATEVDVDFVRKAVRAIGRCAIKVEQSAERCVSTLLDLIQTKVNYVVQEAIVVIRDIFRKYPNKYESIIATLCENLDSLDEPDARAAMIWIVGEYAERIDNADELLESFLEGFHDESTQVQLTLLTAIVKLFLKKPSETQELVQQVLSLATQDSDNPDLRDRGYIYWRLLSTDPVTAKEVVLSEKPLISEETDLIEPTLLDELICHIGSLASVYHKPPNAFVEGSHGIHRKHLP
UniProt Q01082, residues 1545-1789: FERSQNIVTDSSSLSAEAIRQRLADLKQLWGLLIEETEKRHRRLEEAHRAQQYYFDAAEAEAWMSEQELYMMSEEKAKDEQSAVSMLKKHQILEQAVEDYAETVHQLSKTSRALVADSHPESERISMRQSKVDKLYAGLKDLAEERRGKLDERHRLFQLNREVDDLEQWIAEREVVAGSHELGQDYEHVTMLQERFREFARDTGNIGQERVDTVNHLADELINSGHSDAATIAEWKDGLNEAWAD

What was measured:
Assay in all cases: yeast two-hybrid
[1] = biological target: Akt kinase 2 (Akt2), amino acids 276-408 (human) (UniProt P31751)
[2] = biological target: C-myc Binding Protein (MM-1), amino acids 27-175 (human) (UniProt Q99471)
[3] = biological target: T1, Glucose Transporter 4, amino acids 463-510 (human) (UniProt P14672)
T1 sequence (looked up): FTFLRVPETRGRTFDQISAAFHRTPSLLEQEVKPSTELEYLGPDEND

- binding [1]: binds
Substance: Beta Adaptin, amino acids 214-594 (from UniProt P63010 214-594)

- binding [2]: binds
Substance: Beta Spectrin, amino acids 1545-1789 (from UniProt Q01082 1545-1789)

- binding [3]: binds
Substance: MM-1, amino acids 27-168 (from UniProt Q99471 14-154)
